These are yes or no findings as the source states them, for the method shown. In cells and extracts the contact can be indirect. Binding can be weak; no strength is given. Sequences can lack the tags named with a protein.
Target: 3xFLAG-Loxl1 (lysyl oxidase-like 1) (UniProt Q08397)
Assay: co-IP; FLAG-M2 affinity agarose on cell lysates in RIPA buffer, 0.5 mg/mL lysate, 3 hours at 4°C, eluted with 3xFLAG peptides; with or without co-expressed lamR

Protein sequences, listed by entry. Tags and fused reporters are not part of them. Lines headed by an entry give the natural chain unless they say otherwise; changes in a name come on top.
UniProt Q08397: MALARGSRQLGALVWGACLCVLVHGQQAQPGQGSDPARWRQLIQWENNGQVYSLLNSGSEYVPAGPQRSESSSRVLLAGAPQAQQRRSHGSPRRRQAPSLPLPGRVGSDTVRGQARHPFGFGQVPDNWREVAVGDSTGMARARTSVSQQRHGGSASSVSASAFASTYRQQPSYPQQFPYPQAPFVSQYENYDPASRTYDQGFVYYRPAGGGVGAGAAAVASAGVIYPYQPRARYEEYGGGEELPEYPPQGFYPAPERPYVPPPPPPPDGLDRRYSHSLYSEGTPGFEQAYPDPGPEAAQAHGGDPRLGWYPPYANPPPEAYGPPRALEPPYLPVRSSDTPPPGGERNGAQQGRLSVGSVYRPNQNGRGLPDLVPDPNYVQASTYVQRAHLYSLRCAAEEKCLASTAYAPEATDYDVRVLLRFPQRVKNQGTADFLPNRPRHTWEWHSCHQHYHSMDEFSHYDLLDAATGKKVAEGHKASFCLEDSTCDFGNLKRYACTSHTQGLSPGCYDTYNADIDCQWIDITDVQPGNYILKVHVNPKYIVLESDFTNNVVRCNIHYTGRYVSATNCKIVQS

B1: EGFP-SNAI3 (Snail-like transcription factor) (protein, UniProt Q3KNW1 1-292)
chain: MPRSFLVKTHSSHRVPNYRRLETQREINGACSACGGLVVPLLPRDKEAPSVPGDLPQPWDRSSAVACISLPLLPRIEEALGASGLDALEVSEVDPRASRAAIVPLKDSLNHLNLPPLLVLPTRWSPTLGPDRHGAPEKLLGAERMPRAPGGFECFHCHKPYHTLAGLARHRQLHCHLQVGRVFTCKYCDKEYTSLGALKMHIRTHTLPCTCKICGKAFSRPWLLQGHVRTHTGEKPYACSHCSRAFADRSNLRAHLQTHSDAKKYRCRRCTKTFSRMSLLARHEESGCCPGP
B1 was tested. Which binding did it give?
Its binding is “binds”.
